Ends that are not written are not given here.
Assays:
[1] = Peptide substrate induced aggregation of colloidal gold nanoparticles (UV-VIS absorbance ratio, color); details: for induced aggregation of gold nanoparticles by intact peptide substrate: negatively charged gold nanoparticles 1 nM, average diameter 20 nm, 20° C., peptide 300 nM to 1000 nM
trypsin = assay: Colloidal gold nanoparticle-based colorimetric assay for trypsin (hydrolytic cleavage of peptide substrate); format: biochemical; details: 20° C., 20 nm gold nanoparticles
Protocol: Based on the design criteria for the peptide substrate mentioned above, a sequence of amino acids in the peptide substrate of SEQ ID NO: 1 Lys-Lys-Gly-Phe-Pro-Arg-Gly-Gly-Asp-Cys was used in an assay method patterned after FIG. 1a. Unless noted otherwise, all incubations and reactions reported in the present specification were conducted at 20° C. The final reaction volume in all experiments described in the present specification, unless noted otherwise, was 500 microliters and the gold nanoparticle concentration was 1 nM. […] Thus, in all of the described experiments the aggregation state of any gold nanoparticle solution could be measured after 30 minutes or less. […] All of these can be evaluated using the present inventive assay methods. […]
After confirming that the peptide substrate SEQ ID NO: 1 Lys-Lys-Gly-Phe-Pro-Arg-Gly-Gly-Asp-Cys did induce the aggregation of negative surface charged gold nanoparticles, we carried out another experiment of examining the ultraviolet-visible spectra of solutions of colloidal gold nanoparticles after they were added to solutions of peptide substrates that had been pre-exposed for different time periods of from 0 minutes (min) to 60 min to trypsin. […] The absorbance spectrum shifts back to a maximum at 520 nm±5 nm, non-aggregated nanoparticles, as the pre-exposure time increases. […]

Row | Substance | induced aggregation of gold nanoparticles by intact peptide substrate [1] | ratio of the absorbance at 650 nm/absorbance at 520 nm ([1]; 750 nM peptide substrate, no trypsin present, 20 nm gold nanoparticles) | limit of detection of trypsin (trypsin; 750 nM peptide substrate SEQ ID NO: 1, pre-exposure 60 minutes) | limit of detection of trypsin (trypsin; 750 nM peptide substrate SEQ ID NO: 1, pre-exposure 3 hours) [pM]
1 | CGFPRGGSDE [SEQ ID NO: 4, peptide substrate for trypsin] | no color change |  |  | 
2 | KKGFPRGGDC [SEQ ID NO: 1, peptide substrate cleaved by trypsin; intact peptide aggregates negatively charged gold nanoparticles] | did induce aggregation of gold nanoparticles | ~1 |  | 
3 | trypsin: pancreatic serine protease with molecular weight of 24 kDa; analyte of the assay [reference compound] |  |  | about 20 pM | 2 to 10

Reference: US20170226560A1, “GOLD NANOPARTICLE-BASED HOMOGENEOUS COLORIMETRIC DIAGNOSTIC ASSAY FOR THE DETECTION OF PROTEASES AND PROTEASE INHIBITORS” (IMRA America, Inc., priority 2014, published 2017)
